Source: the supplement of paper PMC7024190
Structures can show the parent of a compound that is named as a salt. Some of the results follow. Repeats in this data set agree poorly, so a single value says little.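 The cells were human embryonic kidney cells carrying a Renilla luciferase gene, driven by the HSV-TK promoter, on a plasmid put in briefly by transfection. This is the first-round screen of about ten thousand compounds, looking for ones that raise reporter output.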

Each compound was assayed on HEK 293FT (assay: log relative Renilla luciferase luminescence (reporter expression vs reference, reference not stated) (log (base not stated)); higher = higher recombinant reporter expression). Conditions: 10 µM; time after transfection 48 h.
In the case of NCc1ccccc1CC(=O)N[C@@H]1C(=O)N2C(C(=O)O)=C(CSc3nnnn3CC(=O)O)CS[C@H]12 [ceforanide], the log is reported as -0.0398. CN1CCN(C2=Nc3ccccc3Oc3ccc(Cl)cc32)CC1 [loxapine succinate] showed a log of 0.0576. In the case of CC(C)CC(N)=O [isovaleramide], the log is reported as 0.0502. With COC(=O)c1cc(O)c(=O)c2c(O)c(O)ccc2c1 [methyl 7-deshydroxypyrogallin-4-carboxylate] the log was 0.307. Oc1ccc2ccccc2c1 [beta-naphthol] was tested, and the log was -1.54. CC(=O)S[C@@H]1CC2=CC(=O)CC[C@]2(C)[C@H]2CC[C@@]3(C)[C@@H](CC[C@@]34CCC(=O)O4)[C@H]12 [spironolactone] was tested, and the log was 0.128. For CCCc1cc(C(N)=S)ccn1 [protionamide], the log was 0.00793. CC(Cc1cccc(C(F)(F)F)c1)NCCOC(=O)c1ccccc1 (stereo not drawn) [benfluorex hydrochloride] showed a log of 0.0284. In the case of C=C1CC[C@H](O)C/C1=C/C=C1\CCC[C@]2(C)[C@@H]([C@H](C)CCCC(C)C)CC[C@@H]12 [cholecalciferol], the log is reported as 0.109. With NNCCc1ccccc1 [phenelzine sulfate] the log was 0.0602. Cc1nccnc1N1CCCCC1 [modaline sulfate] showed a log of 0.0705. C[C@H]1O[C@H](O[C@H]2[C@H](O)[C@@H](O)[C@@H](O[C@H]3[C@H](O)[C@@H](O)C(O)O[C@@H]3CO)O[C@@H]2CO)[C@H](O)[C@@H](O)[C@@H]1N[C@H]1C=C(CO)[C@@H](O)[C@H](O)[C@H]1O (stereo partly drawn) [acarbose] showed a log of 0.0233. CC(C)(CO)[C@@H](O)C(=O)NCCC(=O)NCCSSCCNC(=O)CCNC(=O)[C@H](O)C(C)(C)CO [pantethine] showed a log of 0.004. With CN1CCN(CC/C=C2/c3ccccc3Sc3ccc(S(=O)(=O)N(C)C)cc32)CC1 [thiothixene] the log was 0.0741. Work on COc1ccc2c(=O)c(OC)c(-c3ccccc3)oc2c1 [3,7-dimethoxyflavone] yielded a log of -0.0168. For CN1CCC(=C2c3ccccc3C=Cc3ccccc32)CC1 [cyproheptadine hydrochloride], the log was -0.0451. Compound COc1ccc(-c2cc(=O)c3ccccc3o2)cc1 [4'-methoxyflavone] has a log of 0.0121. Work on N=C(N)NC(=N)NCCc1ccccc1 [phenformin hydrochloride] yielded a log of 0.214. NCCc1c[nH]cn1 [histamine dihydrochloride] was tested, and the log was 0.0715. In the case of CCCOc1cc(N)ccc1C(=O)OCCN(CC)CC [propoxycaine hydrochloride], the log is reported as -0.176. OC(Cn1cncn1)(Cn1cncn1)c1ccc(F)cc1F [fluconazole] showed a log of 0.128. For Nc1[nH]cnc2ncnc1-2 [adenine], the log was -0.0423. Work on O.O.O=C([O-])CN(CCN(CC(=O)[O-])CC(=O)O)CC(=O)O.[Na+].[Na+] [edetate disodium] yielded a log of 0.0553. Work on CC(=O)[C@@]1(O)CC[C@H]2[C@@H]3C=C(Cl)C4=CC(=O)[C@@H]5C[C@@H]5[C@]4(C)[C@H]3CC[C@@]21C [cyproterone] yielded a log of -0.086. CC[N+](C)(C)c1cccc(O)c1 [edrophonium chloride] showed a log of 0.0345. COc1c(-c2coc3cc4c(cc3c2=O)CC(O)C(C)(C)O4)ccc2c1C=CC(C)(C)O2 (stereo not drawn) [mundulone] gave a log of -0.581. Cc1cn[nH]c1 [fomepizole] gave a log of 0.153. Work on Cc1cn[nH]c1 [fomepizole hydrochloride] yielded a log of 0.185. CC(=O)OCC(=O)[C@@]1(O)CC[C@H]2[C@@H]3CCC4=CC(=O)C=C[C@]4(C)[C@@]3(Cl)[C@@H](Cl)C[C@@]21C [dichlorisone acetate] showed a log of -0.0182. O=C(O)CN1C(=O)c2cccc3cccc(c23)C1=O [alrestatin] was tested, and the log was -0.154. In the case of FC(F)(F)C(Cl)Br (stereo not drawn) [halothane], the log is reported as -0.0802. CCCCN(CCCC)CCCOC(=O)c1ccc(N)cc1 [butacaine] was tested, and the log was 0.172. Compound Cc1ccc(C(=O)c2ccc(CC(=O)O)n2C)cc1 [tolmetin sodium] has a log of -0.0519. CC(=O)OCC(=O)[C@@]1(O)CC[C@H]2[C@@H]3CCC4=CC(=O)CC[C@]4(C)[C@@]3(F)[C@@H](O)C[C@@]21C [fludrocortisone acetate] was tested, and the log was -0.0916. O=C(O)CCCCCCCC(=O)O [azelaic acid] gave a log of -0.193. For CC(=O)O[C@@H]1C[C@H]2C(C)(C)C(=O)CC[C@]2(C)[C@H]2CC[C@@]3(C)[C@H](c4ccoc4)OC(=O)[C@H]4O[C@]43[C@@]21C [dihydrogedunin], the log was 0.216. CC12CCC3C(CC3(C)C)C(C)(CCC1=O)O2 (stereo not drawn) [3,7-epoxycaryophyllan-6-one] was tested, and the log was 0.0684. NS(=O)(=O)c1cc(C2(O)NC(=O)c3ccccc32)ccc1Cl (stereo not drawn) [chlorthalidone] was tested, and the log was -0.09. Work on CCCCCCCCCCCCCCCC(=O)OC/C=C(C)/C=C/C=C(C)/C=C/C1=C(C)CCCC1(C)C [retinyl palmitate] yielded a log of 0.214. C=CC(N)CCC(=O)O (stereo not drawn) [vigabatrin] showed a log of 0.0621. Work on Cc1ncc(C[n+]2csc(CCO)c2C)c(N)n1 [thiamine] yielded a log of 0.00912. CC(C)c1c(C(=O)Nc2ccccc2)c(-c2ccccc2)c(-c2ccc(F)cc2)n1CC[C@@H](O)C[C@@H](O)CC(=O)O [atorvastatin calcium] showed a log of 0.0217. CC(=O)OCC(=O)[C@@]1(O)CC[C@H]2[C@@H]3CCC4=CC(=O)CC[C@]4(C)[C@H]3[C@@H](O)C[C@@]21C [hydrocortisone acetate] was tested, and the log was 0.159. For CCN[C@H]1CN(CCCOC)S(=O)(=O)c2sc(S(N)(=O)=O)cc21 [brinzolamide], the log was -0.128. OC[C@@H](O)[C@@H](O)[C@H](O)[C@H](O)CO [mannitol] showed a log of -0.176. C=CCc1ccc(O)c(OC)c1 [eugenol] showed a log of 0.157. For CC(=O)OCC(=O)NCCCOc1cccc(CN2CCCCC2)c1 [roxatidine acetate hydrochloride], the log was 0.218. Work on CCn1cc(C(=O)O)c(=O)c2cc(F)c(N3CCNCC3)nc21 [enoxacin] yielded a log of 0.129. COc1cc(O)c(C(=O)/C=C/c2ccc(OC)c(O)c2)c(OC)c1 [2',3-dihydroxy-4,4',6'-trimethoxychalcone] gave a log of 0.182. Work on CN(C)c1cnccn1 [ampyzine sulfate] yielded a log of -0.0911. Work on CC(CCC(=O)O)[C@H]1CCC2C3C[C@H](O)[C@@H]4C[C@H](O)CC[C@]4(C)C3CC[C@@]21C (stereo partly drawn) [alpha-hydroxydeoxycholic acid] yielded a log of 0.161. In the case of CCCc1ncc(C[n+]2ccccc2C)c(N)n1 [amprolium], the log is reported as 0.0154. Work on C=CC(C)(O)CCC=C(C)CCC=C(C)C (mixture of isomers) [nerolidol] yielded a log of 0.0938. COc1ccccc1-c1coc2cc(O)ccc2c1=O [7-hydroxy-2'-methoxyisoflavone] gave a log of 0.0464. Compound CC(C(=O)O)c1cccc(Oc2ccccc2)c1 (stereo not drawn) [fenoprofen] has a log of -0.0656. Compound O=C(O)CN(CCN(CC(=O)O)CC(=O)O)CC(=O)O.[Na+].[Na+].[Na+] [trisodium ethylenediamine tetracetate] has a log of -0.175. With O=C1OC(c2ccc(O)cc2)(c2ccc(O)cc2)c2ccccc21 [phenolphthalein] the log was 0.0225. COc1cc(OC)c2c(=O)cc(-c3ccccc3)oc2c1 [chrysin dimethyl ether] was tested, and the log was 0.0209. COc1ccc2c(C)cc(=O)oc2c1 [hymecromone methyl ether] gave a log of 0.0285. With COC(=O)C[C@H]1C(C)(C)[C@@H](O)[C@@H]2CC3=C4C=C(OC)O[C@@H](c5ccoc5)[C@]4(C)CCC3[C@@]1(C)C2=O (stereo partly drawn) [3-deoxo-3beta-hydroxymexicanolide 16-enol ether] the log was 0.0826. Work on Cc1cccc(C)c1NC(=O)c1ccccc1C(=O)O [ftaxilide] yielded a log of -0.00108. CC(C)NCC(O)COc1cccc2ccccc12 (racemic) [propranolol hydrochloride (+/-)] was tested, and the log was -0.0459. CS(=O)(=O)c1ccc([C@@H](O)[C@@H](CF)NC(=O)C(Cl)Cl)cc1 [florfenicol] was tested, and the log was -0.0505. CCN(CC)CCCC(C)Nc1ccnc2cc(Cl)ccc12 (stereo not drawn) [chloroquine diphosphate] showed a log of -0.0201. With FCOC(C(F)(F)F)C(F)(F)F [sevoflurane] the log was 0.109. In the case of CCCCCC1C(=O)CCC1CC(=O)OC (stereo not drawn) [dihydrojasmonic acid, methyl ester], the log is reported as 0.0513. Nc1ccc(S(=O)(=O)NC(=O)c2ccccc2)cc1 [sulfabenzamide] gave a log of -0.0331. C[N+](C)(C)CCOP(=O)(O)OP(=O)([O-])OC[C@H]1O[C@@H](n2ccc(N)nc2=O)[C@H](O)[C@@H]1O [citicoline] gave a log of 0.00988. Work on CC(C)c1nc(N(C)S(C)(=O)=O)nc(-c2ccc(F)cc2)c1/C=C/[C@@H](O)C[C@@H](O)CC(=O)O [rosuvastatin calcium] yielded a log of 0.0409. Work on C=C(CC)C(=O)c1ccc(OCC(=O)O)c(Cl)c1Cl [ethacrynic acid] yielded a log of -0.00179. Compound C=C(C)[C@@H]1CC[C@]2(C(=O)O)CC[C@]3(C)[C@H](CC[C@@H]4[C@@]5(C)CC[C@H](O)C(C)(C)[C@@H]5CC[C@]43C)[C@@H]12 [betulinic acid] has a log of 0.0256. Oc1ccc2c(c1)OC[C@]1(O)Cc3cc(O)c(O)cc3[C@H]21 [brazilin] was tested, and the log was -0.0704. Work on C[Se]CC[C@H](N)C(=O)O [selenomethionine] yielded a log of 0.0703. C1N2CN3CN1CN(C2)C3 [methenamine] was tested, and the log was 0.0155. O=C(O)C1=C[C@@H](O)[C@@H](O)[C@H](O)C1 [shikimic acid] gave a log of 0.15. With CCCCCN(C)CCC(O)(P(=O)(O)O)P(=O)(O)O [ibandronate sodium] the log was -0.024. Work on Cc1ncc([N+](=O)[O-])n1C [dimetridazole] yielded a log of 0.0703. For N[C@@H](CC(=O)O)C(=O)O [aspartic acid (l)], the log was 0.131.
